# In PMC3562248:
# Target: histone H3 N-terminal tail peptide (aa 1-21), unmodified, C-terminal biotin (UniProt P68431)
# Test: affinity purification with mass spectrometry; biotinylated H3 1-21 peptide immobilised on streptavidin agarose beads, 2 mg HeLa nuclear extract, 3 h at 4°C, wash with 250 mM KCl; Coomassie-stained bands cut out and identified by mass spectrometry; only the target purified
substance,measurement,value
"CoREST (endogenous, HeLa) (from UniProt Q9UKL0 1-485)",binding,no binding

# These are yes or no findings as the source states them, for the method shown. In cells and extracts the contact can be indirect. A yes stands for co-enrichment or nearness to the bait. Other partners may have been found. A no says only that the protein was not detected with the bait.
